Experimental data published in the supplement of paper PMC6078165.
The reference is the same well before dosing, and untreated signal decays as well.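 Fibroblast labels denote human fibroblasts, mainly primary ones from uterus (C12385, HUF), lung (H6013), bone (Hs27A), adrenal (HADF) and skin (WS1), plus mammary HMF and breast cancer-associated Hs343T. Cancer cells are basal-like or mesenchymal-like triple-negative breast cancer lines. A hit is a response shift exceeding 3x replicate standard deviation. The tissue of the other fibroblasts is not given here.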

System: BT20
Experiment: relative JC-1 red fluorescence (viability) vs pre-drug, coculture with fibroblast (fraction); higher = more viable cancer cells
Protocol: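 JC-1 labelled TNBC cells cocultured 1:1 (1,500 cells each) with CellTrace Violet stained primary or stromal fibroblasts in 384-well plates in FluoroBrite medium, treated with one of 42 anticancer drugs at 0.1, 1, 10 or 100 uM. JC-1 red fluorescence (mitochondrial integrity in cancer cells only) was read by plate reader every 8 h for 72 h. Values are normalised to each well's pre-drug value. The stock of one drug was tenfold lower, so its dose labels may be too high.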

O=C(O)C(=O)O.[NH-][C@@H]1CCCC[C@H]1[NH-].[Pt+2] [Oxaliplatin]
relative JC-1 red fluorescence
Settings | 8 h | 16 h | 24 h | 32 h | 40 h | 48 h | 56 h | 64 h | 72 h
0.1 µM, coculture fibroblast: C12385 | 0.9156 | 0.921 | 0.952 | 0.913 | 0.866 | 0.841 | 0.823 | 0.82 | 0.822
0.1 µM, coculture fibroblast: H6013 | 0.948 | 0.934 | 0.872 | 0.892 | 0.881 | 0.849 | 0.816 | 0.912 | 0.881
0.1 µM, coculture fibroblast: H6019 | 0.873 | 0.81 | 0.779 | 0.71 | 0.662 | 0.644 | 0.614 | 0.599 | 0.571
0.1 µM, coculture fibroblast: H6076 | 0.921 | 0.9352 | 0.874 | 0.859 | 0.846 | 0.829 | 0.837 | 0.8415 | 0.8443
0.1 µM, coculture fibroblast: H6231 | 0.98 | 0.9101 | 0.8411 | 0.7902 | 0.7814 | 0.7417 | 0.712 | 0.704 | 0.703
0.1 µM, coculture fibroblast: HADF | 0.942 | 0.948 | 0.9236 | 0.88 | 0.803 | 0.93 | 0.835 | 0.838 | 0.795
0.1 µM, coculture fibroblast: HCFa | 0.933 | 0.864 | 0.817 | 0.761 | 0.721 | 0.691 | 0.678 | 0.665 | 0.632
0.1 µM, coculture fibroblast: HCPF | 0.852 | 0.9229 | 0.859 | 0.82 | 0.788 | 0.757 | 0.729 | 0.726 | 0.704
0.1 µM, coculture fibroblast: HHSteC | 0.945 | 0.918 | 0.92 | 0.867 | 0.85 | 0.825 | 0.82 | 0.808 | 0.796
0.1 µM, coculture fibroblast: HMF | 0.861 | 0.933 | 0.847 | 0.793 | 0.759 | 0.725 | 0.692 | 0.668 | 0.653
0.1 µM, coculture fibroblast: HPFa | 0.89 | 0.895 | 0.892 | 0.924 | 0.908 | 0.884 | 0.879 | 0.865 | 0.837
0.1 µM, coculture fibroblast: HUF | 0.8915 | 0.8171 | 0.8 | 0.732 | 0.685 | 0.651 | 0.643 | 0.637 | 0.619
0.1 µM, coculture fibroblast: Hs5 | 0.9927 | 0.931 | 0.902 | 0.8696 | 0.865 | 0.8463 | 0.8476 | 0.8268 | 0.8232
0.1 µM, coculture fibroblast: Hs27A | 0.797 | 0.818 | 0.894 | 0.977 | 0.96 | 0.958 | 0.969 | 0.966 | 0.927
0.1 µM, coculture fibroblast: Hs343T | 0.848 | 0.8894 | 0.765 | 0.693 | 0.6364 | 0.6033 | 0.5622 | 0.544 | 0.5227
0.1 µM, coculture fibroblast: WS1 | 0.848 | 0.77 | 0.72 | 0.645 | 0.586 | 0.563 | 0.544 | 0.527 | 0.526
1 µM, coculture fibroblast: C12385 | 0.894 | 0.814 | 0.766 | 0.71 | 0.662 | 0.625 | 0.598 | 0.575 | 0.556
1 µM, coculture fibroblast: H6013 | 0.9624 | 0.916 | 0.901 | 0.864 | 0.841 | 0.839 | 0.837 | 0.817 | 0.808
1 µM, coculture fibroblast: H6019 | 0.848 | 0.769 | 0.743 | 0.678 | 0.633 | 0.618 | 0.583 | 0.557 | 0.539
1 µM, coculture fibroblast: H6076 | 0.96 | 0.855 | 0.776 | 0.751 | 0.719 | 0.705 | 0.688 | 0.682 | 0.661
1 µM, coculture fibroblast: H6231 | 0.734 | 0.934 | 0.7976 | 0.727 | 0.683 | 0.637 | 0.5951 | 0.563 | 0.531
1 µM, coculture fibroblast: HADF | 0.733 | 0.9042 | 0.79498 | 0.787 | 0.763 | 0.723 | 0.682 | 0.645 | 0.608
1 µM, coculture fibroblast: HCFa | 0.96 | 0.917 | 0.899 | 0.857 | 0.826 | 0.794 | 0.774 | 0.751 | 0.709
1 µM, coculture fibroblast: HCPF | 0.875 | 0.886 | 0.798 | 0.754 | 0.707 | 0.659 | 0.615 | 0.589 | 0.554
1 µM, coculture fibroblast: HHSteC | 0.9025 | 0.82 | 0.80393 | 0.72771 | 0.6739 | 0.6398 | 0.605 | 0.586 | 0.563
1 µM, coculture fibroblast: HMF | 0.9788 | 0.8526 | 0.739 | 0.674 | 0.627 | 0.572 | 0.533 | 0.497 | 0.468
1 µM, coculture fibroblast: HPFa | 0.837 | 0.892 | 0.91 | 0.829 | 0.807 | 0.764 | 0.733 | 0.699 | 0.642
1 µM, coculture fibroblast: HUF | 0.89967 | 0.789 | 0.76 | 0.685 | 0.636 | 0.606 | 0.587 | 0.566 | 0.553
1 µM, coculture fibroblast: Hs5 | 0.99 | 0.885 | 0.824 | 0.779 | 0.734 | 0.689 | 0.653 | 0.615 | 0.589
1 µM, coculture fibroblast: Hs27A | 0.898 | 0.786 | 0.94798 | 0.9316 | 0.8929 | 0.87 | 0.8508 | 0.823 | 0.769
1 µM, coculture fibroblast: Hs343T | 0.9272 | 0.836 | 0.748 | 0.696 | 0.662 | 0.626 | 0.594 | 0.583 | 0.559
1 µM, coculture fibroblast: WS1 | 0.922 | 0.825 | 0.823 | 0.784 | 0.745 | 0.725 | 0.713 | 0.6948 | 0.694
10 µM, coculture fibroblast: C12385 | 0.8852 | 0.8307 | 0.787 | 0.73 | 0.685 | 0.657 | 0.636 | 0.617 | 0.596
10 µM, coculture fibroblast: H6013 | 0.9397 | 0.8797 | 0.846 | 0.813 | 0.778 | 0.762 | 0.765 | 0.745 | 0.731
10 µM, coculture fibroblast: H6019 | 0.876 | 0.823 | 0.822 | 0.785 | 0.753 | 0.751 | 0.739 | 0.728 | 0.721
10 µM, coculture fibroblast: H6076 | 0.959 | 0.871 | 0.7997 | 0.776 | 0.763 | 0.745 | 0.755 | 0.75 | 0.731
10 µM, coculture fibroblast: H6231 | 0.879 | 0.909 | 0.823 | 0.751 | 0.708 | 0.67 | 0.628 | 0.5908 | 0.5711
10 µM, coculture fibroblast: HADF | 0.9853 | 0.843 | 0.799 | 0.854 | 0.788 | 0.735 | 0.772 | 0.682 | 0.67
10 µM, coculture fibroblast: HCFa | 0.925 | 0.86 | 0.816 | 0.804 | 0.795 | 0.775 | 0.746 | 0.733 | 0.707
10 µM, coculture fibroblast: HCPF | 0.85 | 0.936 | 0.857 | 0.807 | 0.767 | 0.716 | 0.673 | 0.65 | 0.617
10 µM, coculture fibroblast: HHSteC | 0.906 | 0.8305 | 0.77 | 0.688 | 0.648 | 0.6112 | 0.5884 | 0.5564 | 0.537
10 µM, coculture fibroblast: HMF | 0.7942 | 0.9127 | 0.81 | 0.753 | 0.708 | 0.672 | 0.638 | 0.61 | 0.5788
10 µM, coculture fibroblast: HPFa | 0.9415 | 0.856 | 0.8528 | 0.775 | 0.752 | 0.709 | 0.701 | 0.678 | 0.645
10 µM, coculture fibroblast: HUF | 0.883 | 0.816 | 0.791 | 0.718 | 0.674 | 0.641 | 0.619 | 0.601 | 0.585
10 µM, coculture fibroblast: Hs5 | 0.758 | 0.924 | 0.864 | 0.816 | 0.774 | 0.749 | 0.728 | 0.703 | 0.681
10 µM, coculture fibroblast: Hs27A | 0.854 | 0.888 | 0.91 | 0.906 | 0.867 | 0.845 | 0.837 | 0.809 | 0.767
10 µM, coculture fibroblast: Hs343T | 0.832 | 0.9143 | 0.7874 | 0.719 | 0.657 | 0.613 | 0.562 | 0.539 | 0.5
10 µM, coculture fibroblast: WS1 | 0.8587 | 0.784 | 0.7192 | 0.652 | 0.592 | 0.561 | 0.531 | 0.507 | 0.493
100 µM, coculture fibroblast: C12385 | 0.927 | 0.871 | 0.823 | 0.781 | 0.734 | 0.7 | 0.658 | 0.628 | 0.61
100 µM, coculture fibroblast: H6013 | 0.947 | 0.947 | 0.862 | 0.904 | 0.862 | 0.845 | 0.854 | 0.838 | 0.825
100 µM, coculture fibroblast: H6019 | 0.8698 | 0.8006 | 0.761 | 0.67 | 0.604 | 0.562 | 0.523 | 0.492 | 0.471
100 µM, coculture fibroblast: H6076 | 0.8958 | 0.929 | 0.802 | 0.752 | 0.692 | 0.643 | 0.6 | 0.58 | 0.551
100 µM, coculture fibroblast: H6231 | 0.753 | 0.9745 | 0.826 | 0.756 | 0.723 | 0.671 | 0.644 | 0.619 | 0.5905
100 µM, coculture fibroblast: HADF | 0.927 | 0.907 | 0.823 | 0.793 | 0.742 | 0.687 | 0.664 | 0.653 | 0.629
100 µM, coculture fibroblast: HCFa | 0.934 | 0.8835 | 0.855 | 0.785 | 0.737 | 0.69 | 0.67 | 0.646 | 0.608
100 µM, coculture fibroblast: HCPF | 0.87 | 0.912 | 0.838 | 0.7749 | 0.72 | 0.668 | 0.629 | 0.614 | 0.576
100 µM, coculture fibroblast: HHSteC | 0.9341 | 0.912 | 0.906 | 0.834 | 0.783 | 0.758 | 0.742 | 0.719 | 0.699
100 µM, coculture fibroblast: HMF | 0.842 | 0.9084 | 0.7936 | 0.735 | 0.667 | 0.595 | 0.5403 | 0.508 | 0.471
100 µM, coculture fibroblast: HPFa | 0.958 | 0.884 | 0.877 | 0.7928 | 0.751 | 0.703 | 0.688 | 0.664 | 0.635
100 µM, coculture fibroblast: HUF | 0.952 | 0.886 | 0.886 | 0.807 | 0.75 | 0.705 | 0.69 | 0.674 | 0.665
100 µM, coculture fibroblast: Hs5 | 0.912 | 0.911 | 0.8286 | 0.7641 | 0.7174 | 0.676 | 0.6576 | 0.6296 | 0.6149
100 µM, coculture fibroblast: Hs27A | 0.786 | 0.844 | 0.9375 | 0.932 | 0.9002 | 0.883 | 0.903 | 0.899 | 0.865
100 µM, coculture fibroblast: Hs343T | 0.963 | 0.887 | 0.8074 | 0.751 | 0.702 | 0.646 | 0.598 | 0.585 | 0.561
100 µM, coculture fibroblast: WS1 | 0.8844 | 0.787 | 0.7715 | 0.7099 | 0.656 | 0.6202 | 0.593 | 0.559 | 0.553
